Reference: PubChem BioAssay AID1053208 (Peter MacCallum Cancer Centre, 2014)
Test: 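Synthetic lethal interactions between gene loss and doxorubicin in osteosarcoma cells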 (primary screen). System: mouse osteosarcoma cells, early-passage culture from an engineered mouse model of fibroblastic bone tumour. Knock-down reagent: siRNA pool against mouse genes, 40 nM. Timing: about 120 h (48 h before drug, then 72 h with drug). Challenge: doxorubicin 100 nM for 72 h, roughly 30-40% inhibitory dose. Measurement: 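Viability read as ATP luminescence after 72 h of 100 nM doxorubicin or none, duplicate wells averaged, scaled to non-targeting siRNA, then expressed as robust z-scores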. Scale: viability z-score with doxorubicin: higher = more viable cells under doxorubicin; viability z-score without drug: higher = more viable cells with knock-down alone. Call rule: 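Called active if knock-down leaves viability unchanged without drug (z within -2 to 2) but lowers it with doxorubicin (z at or under -2)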.
This is an unselected part of about 17,000 reagents. 788 of them (4.7%) were called active. 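Calls rest on z-score classes alone; an extra cut-off of viability at most 70% of control was not applied to them.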 Not all columns of the deposit are shown.

With Krtap13-20, what was measured?
combined z-score class: no change with or without drug; viability z-score with doxorubicin: 1.69; viability z-score without drug: 1.69; outcome: inactive

Which result is listed for Pola1?
combined z-score class: low cell count with doxorubicin only; viability z-score with doxorubicin: -2.25; viability z-score without drug: -0.17; outcome: active

With Akr1e1, what was measured?
combined z-score class: no change with or without drug; viability z-score with doxorubicin: -0.45; viability z-score without drug: -0.51; outcome: inactive

What did the screen give for Usp25?
combined z-score class: no change with or without drug; viability z-score with doxorubicin: -1.24; viability z-score without drug: -1.52; outcome: inactive

Which result is listed for Stat4?
combined z-score class: no change with or without drug; viability z-score with doxorubicin: -0.45; viability z-score without drug: 0.34; outcome: inactive

For Etfrf1, how do the results read?
combined z-score class: high cell count without drug only; viability z-score with doxorubicin: -1.35; viability z-score without drug: 3.71; outcome: inactive

3 neighbouring entries from above:
Pola1 → combined z-score class: low cell count with doxorubicin only; viability z-score with doxorubicin: -2.25; viability z-score without drug: -0.17; outcome: active
Akr1e1 → combined z-score class: no change with or without drug; viability z-score with doxorubicin: -0.45; viability z-score without drug: -0.51; outcome: inactive
Usp25 → combined z-score class: no change with or without drug; viability z-score with doxorubicin: -1.24; viability z-score without drug: -1.52; outcome: inactive

Next reagents follow:
How did the screen score Eif4e2?
combined z-score class: no change with or without drug; viability z-score with doxorubicin: -1.12; viability z-score without drug: 0.51; outcome: inactive

How did the screen score Ptgr3?
combined z-score class: no change with or without drug; viability z-score with doxorubicin: -0.45; viability z-score without drug: -0.84; outcome: inactive

With Grem2, what was measured?
combined z-score class: no change with or without drug; viability z-score with doxorubicin: 0.45; viability z-score without drug: 0.51; outcome: inactive

With Cd2, how do the results read?
combined z-score class: high cell count without drug only; viability z-score with doxorubicin: 1.12; viability z-score without drug: 2.36; outcome: inactive

For Acadvl, what does the deposit list?
combined z-score class: no change with or without drug; viability z-score with doxorubicin: -0.34; viability z-score without drug: -0.84; outcome: inactive

With Ppfia1, what was measured?
combined z-score class: no change with or without drug; viability z-score with doxorubicin: 0.9; viability z-score without drug: -0.17; outcome: inactive

For Pros1, how do the results read?
combined z-score class: no change with or without drug; viability z-score with doxorubicin: 1.69; viability z-score without drug: -0.17; outcome: inactive

Which result is listed for Ndufv1?
combined z-score class: no change with or without drug; viability z-score with doxorubicin: -1.57; viability z-score without drug: -1.35; outcome: inactive

For Sh3gl2, what was measured?
combined z-score class: no change with or without drug; viability z-score with doxorubicin: 0.22; viability z-score without drug: 1.85; outcome: inactive

With Ppil1, how do the results read?
combined z-score class: no change with or without drug; viability z-score with doxorubicin: 0.11; viability z-score without drug: -0.51; outcome: inactive

With Rps26, what was measured?
combined z-score class: low cell count with and without drug; viability z-score with doxorubicin: -7.31; viability z-score without drug: -5.23; outcome: inactive

For Fth1, what does the deposit list?
combined z-score class: no change with or without drug; viability z-score with doxorubicin: -0.9; viability z-score without drug: -0.17; outcome: inactive

With Esr1, what does the deposit list?
combined z-score class: no change with or without drug; viability z-score with doxorubicin: -0.67; viability z-score without drug: -1.85; outcome: inactive
